Source: patent US20100266584A1
Results are given in words; binding and its absence hold for the method and conditions named. Some entries that bind do so weakly or less than the wild type. Each block holds one molecule with its values, some of them ahead of it.

Amino acid sequences for entries named in this document (tags omitted). A change or cut given only in a name is not applied to a line headed by its entry. Residues count along the entry.
UniProt P21860: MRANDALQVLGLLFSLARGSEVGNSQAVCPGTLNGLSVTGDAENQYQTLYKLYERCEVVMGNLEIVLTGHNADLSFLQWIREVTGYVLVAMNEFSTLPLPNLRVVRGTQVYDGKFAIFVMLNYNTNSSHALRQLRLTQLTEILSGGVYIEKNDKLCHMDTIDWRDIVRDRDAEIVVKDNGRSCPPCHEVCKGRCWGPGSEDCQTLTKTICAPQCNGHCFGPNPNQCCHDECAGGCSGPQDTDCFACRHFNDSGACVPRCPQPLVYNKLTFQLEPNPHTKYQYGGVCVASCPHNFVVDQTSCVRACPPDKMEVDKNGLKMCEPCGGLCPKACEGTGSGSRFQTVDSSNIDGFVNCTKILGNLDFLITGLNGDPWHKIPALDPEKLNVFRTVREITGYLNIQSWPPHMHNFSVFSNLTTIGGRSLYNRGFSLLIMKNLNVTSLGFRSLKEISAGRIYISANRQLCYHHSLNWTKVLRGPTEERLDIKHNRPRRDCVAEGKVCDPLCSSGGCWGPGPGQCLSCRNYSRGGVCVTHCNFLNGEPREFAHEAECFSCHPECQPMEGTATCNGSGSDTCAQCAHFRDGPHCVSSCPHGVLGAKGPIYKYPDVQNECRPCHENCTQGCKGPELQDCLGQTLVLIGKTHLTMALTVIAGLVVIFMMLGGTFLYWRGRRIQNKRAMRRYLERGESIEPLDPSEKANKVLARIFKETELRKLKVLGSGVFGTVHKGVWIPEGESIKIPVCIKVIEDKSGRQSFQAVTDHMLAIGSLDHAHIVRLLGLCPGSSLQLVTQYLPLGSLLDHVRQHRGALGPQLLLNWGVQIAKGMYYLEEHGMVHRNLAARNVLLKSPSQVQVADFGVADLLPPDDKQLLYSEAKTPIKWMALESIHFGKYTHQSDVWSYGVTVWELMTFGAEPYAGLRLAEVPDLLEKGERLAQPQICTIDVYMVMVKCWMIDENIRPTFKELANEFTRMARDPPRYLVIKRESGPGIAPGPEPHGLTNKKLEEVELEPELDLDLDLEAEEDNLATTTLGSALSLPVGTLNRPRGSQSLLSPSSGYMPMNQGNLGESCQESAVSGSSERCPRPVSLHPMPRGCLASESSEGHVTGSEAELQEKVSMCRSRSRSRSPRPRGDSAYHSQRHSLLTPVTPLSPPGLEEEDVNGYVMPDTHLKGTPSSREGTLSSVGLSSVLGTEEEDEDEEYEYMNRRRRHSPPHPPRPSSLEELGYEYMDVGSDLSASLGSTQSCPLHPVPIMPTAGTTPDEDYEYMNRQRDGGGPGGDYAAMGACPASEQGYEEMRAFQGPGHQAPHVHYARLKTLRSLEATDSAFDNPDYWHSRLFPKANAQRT
UniProt O14944, residues 63-108: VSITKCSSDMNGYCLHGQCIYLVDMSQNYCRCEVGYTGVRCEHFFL

Columns and labels:
[1] = biological target: ErbB3, full length, on cells (human) (UniProt P21860); assay: FACS, 1 uM biotinylated epiregulin on AdrR cells
ErbB1 on AdrR cells [2] = biological target: ErbB1 on AdrR cells (UniProt P00533); assay: FACS, biotinylated BTC on AdrR cells, streptavidin-PE
ErbB1 on AdrR cells [3] = biological target: ErbB1 on AdrR cells (UniProt P00533); assay: FACS, biotinylated BTC on AdrR cells

- binding [1]: binds
Molecule: epiregulin (from UniProt O14944 63-108) (ligand)

- binding (ErbB1 on AdrR cells [2]): binds
- binding (ErbB1 on AdrR cells [3]): binds
B1: betacellulin (ligand, UniProt P35070 32-111, looked up)
chain: DGNSTRSPETNGLLCGDPEENCAATTTQSKRKGHFSRCPKQYKHYCIKGRCRFVVAEQTPSCVCDEGYIGARCERVDLFY
modifications: biotinylated (FACS binding assays)
